Oligonucleotides screened, 5′ to 3′:
SAM-II: SAM-II riboswitch RNA pseudoknot, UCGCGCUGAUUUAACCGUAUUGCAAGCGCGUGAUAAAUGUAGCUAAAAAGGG. About 21,000 compounds screened, about 200 hits.
TPP: TPP riboswitch RNA three-way junction, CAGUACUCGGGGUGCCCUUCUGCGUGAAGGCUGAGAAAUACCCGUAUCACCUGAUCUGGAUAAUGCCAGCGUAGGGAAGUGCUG. About 24,000 compounds screened, about 160 hits.
PreQ1: PreQ1 riboswitch RNA pseudoknot, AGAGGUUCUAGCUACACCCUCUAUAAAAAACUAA. From B. subtilis. About 24,000 compounds screened, about 170 hits.

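Compounds were printed on reactive glass slides in duplicate spots, a dye-labelled oligonucleotide was laid over them, and the fluorescence left after washing was read. For the PreQ1, TPP and SAM-II riboswitches the laboratory earlier reported (doi:10.1038/s41467-019-09493-3) 1 µM RNA, 2 h, and a rule that included a mean Z-score above 3 (spot signal-to-noise against the whole library), a score well above that on a control array, and duplicate spots agreeing (coefficient of variation under 100). The data file gives only the calls; its cut-offs may differ, and compounds hitting several targets are kept. A missing hit is not proof of no binding, and a hit is not a measured affinity.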 Key: yes = hit, no = tested without a hit. Compounds were drawn at random from those tested, without regard to their results. A target missing from an entry has no call listed here. A dash means that no call is listed here.

structure	SAM-II	TPP	PreQ1
Cc1cc(N2CCC3(CCCN(CCO)C3=O)C2)nc(-c2ccccc2)n1 (centres undefined)	no	no	no
Cc1ccc(S(=O)(=O)c2nc(N)sc2Cl)cc1	no	no	no
Cc1cc(NC(=O)Nc2cccc3ccccc23)no1	no	no	no
CN(C)c1ccc2c(c1)OC(N)=C(C#N)C2c1cccnc1 (centres undefined)	no	no	no
CCCc1cc(NC2CCCC2)n2nc3nc(C)cc(C)c3c2n1	-	no	no
Cc1nn(-c2cc(Cl)ccc2N)c(=O)c2ccccc12	no	no	no
CCNC(=O)[C@@H]1C[C@H](N)CN1C(=O)CCCC(=O)c1ccccc1	no	no	no
CCOc1ccc(CN2C[C@H](N)C[C@H]2C(=O)NC)cn1	no	no	no
Cc1cc(C)nc(N2CCC(NCCCc3c(C)n[nH]c3C)CC2)n1	no	no	no
Cc1nc(CCNC(=O)C(N)c2c(C)n[nH]c2C)nc2c1CCCC2 (centres undefined)	no	no	no
CCCc1nc2nc(C)cc(Nc3ccc(F)cc3F)n2n1	no	no	no
OCC(CO)N1CCCC(c2nc3ccccc3[nH]2)C1 (centres undefined)	no	no	no
CCCCn1nc(C2CCCC2)nc1[C@@H](N)Cc1ccc(O)cc1	no	no	no
COCCNc1oc(-c2ccc(Cl)cc2)nc1S(=O)(=O)c1ccccc1	-	no	no
C=C1C(=O)OC2CC3(C)OC3CC/C(C)=C/C(OC(C)=O)C12 (centres undefined)	no	no	no
Cc1ncc(CO)c(CN2CC[C@@H](c3ccc4ccccc4c3)[C@H](O)C2)c1O	no	no	no
Cc1cc(C)nc(CCNC(=O)Nc2ccc(CN)cc2)n1	no	no	no
Nc1cccc(-c2nc3ccccc3s2)c1	no	no	no
C=CCNCc1cc(O)c2cc(C(N)=O)ccc2n1	no	no	no
c1ccc(-c2ccc3c(c2)NC(C2Nc4cc(-c5ccccc5)ccc4O2)O3)cc1 (centres undefined)	no	no	no
CCNc1cc(NC2CCC(O)CC2)nc(Nc2ccc3c(ccn3Cc3ccccc3)c2)n1 (centres undefined)	no	no	no
CCc1nc(N)nc(NCCS(=O)(=O)CC)c1C	no	no	no
N[C@@H](Cc1ccccc1)c1nnc(SCc2ccccc2Cl)o1	no	no	no
CN(Cc1c[nH]nc1-c1ccc(F)cc1)C(=O)c1ccccc1C1CCNC1 (centres undefined)	no	no	no
CC(C)(NC(=O)c1ccc2ncsc2c1)c1nnc(N)s1	no	no	no
O=C(NCCc1nc2c(s1)CCC2)c1cn2c(n1)CNCC2	no	no	no
CCCCc1cc(=O)[nH]c(-c2ccc(CN(C)CCO)cc2)n1	no	no	no
CCn1cc(Cn2ccnc2-c2cc(C#CCO)cs2)cn1	no	no	no
c1ccn2c(CCCNC3CCOC4(CCOCC4)C3)nnc2c1 (centres undefined)	no	no	no
OCCSc1nnc(Cc2ccccc2)n1Cc1ccccc1	-	no	no
CSc1nc(N)nc(SCC(=O)c2ccc(C)cc2)c1C#N	no	no	no
CC1(C)Cc2c(cnn2-c2ccc(F)cc2)C(N)C1 (centres undefined)	no	no	no
NS(=O)(=O)c1cccc2c1C(=O)c1cccc(O)c1C2=O	no	no	no
CC1=CC(C)(C(Cl)(Cl)Cl)C(C)=C/C1=N/O (centres undefined)	no	no	no
CCC(=O)CNC(C)(C)C	no	no	no
CCN(CC)C(=O)[C@@H]1C[C@H](N)CN1C(=O)C=Cc1ccccc1	no	no	no
O=C(C1CCC1)N1C[C@H](O)[C@@H](N2CCN(c3cnccn3)CC2)C1	no	no	no
CCOc1cc(N2CCC(O)CC2)ccc1Nc1ncc2c(n1)N(C)c1ccccc1C(=O)N2C	no	no	no
COc1ccc(CCN2CCN(CCCc3ccccc3)CC2)cc1OC	no	no	no
O=C(Cc1cccc2ccccc12)N1CCOC2(CNCCOC2)C1 (centres undefined)	no	no	no
COc1cc(C2c3c(-c4ccccc4O)n[nH]c3C(=O)N2CCO)cc(Br)c1O (centres undefined)	-	no	no
Cn1ncc2c(Sc3ccc(Cl)cc3)ncnc21	no	no	no
COc1cccc(N2CC(c3nc4ccccc4n3CC(O)COc3c(C)cccc3C)CC2=O)c1 (centres undefined)	-	no	no
CCCc1cncnc1N1CCC(NC2CCCCNC2=O)CC1 (centres undefined)	no	no	no
Cc1nn(C)c(C)c1-c1cc(C(=O)N2C[C@H]3C[C@H](O)[C@H](O)C[C@H]3C2)n(C)n1	no	no	no
COc1cc(-c2nc3[nH]cnn3c2Nc2c(C)cccc2C)ccc1O	no	no	no
C[C@@H](O)[C@H]1C(=O)N2C(C(=O)OCOC(=O)C(C)(C)C)=C(SC3CN(C4=NCCS4)C3)[C@H](C)[C@H]12	no	no	no
Cc1cccc(NC(=O)CNCC2(c3ccccc3)CCOCC2)c1C	no	no	no
COc1cc(C(=O)N2CC3(CCNCC3)CC2C(=O)O)ccc1C (centres undefined)	no	no	no
Cc1ccc(OCC(O)CN2CCCC(C)C2)c(C)c1 (centres undefined)	no	no	no
c1cncc(OCCCNC2CCSCC2)c1	no	no	no
Cc1cc(C(=O)N[C@H]2CN[C@H](C(=O)N(C)C3Cc4ccccc4C3)C2)c(C)o1	no	no	no
OC(COc1ccc(Br)cc1)CN(C1CCCCC1)C1CCCCC1 (centres undefined)	no	no	no
O[C@@H]1C[C@H](O)C12CCN(Cc1ccc(C(F)(F)F)cc1F)CC2	no	no	no

For reference, 3 entries once more:

{"structure": "CC(C)(NC(=O)c1ccc2ncsc2c1)c1nnc(N)s1", "SAM-II": "no", "TPP": "no", "PreQ1": "no"}
{"structure": "Cc1cc(N2CCC3(CCCN(CCO)C3=O)C2)nc(-c2ccccc2)n1", "stereo": "centres undefined", "SAM-II": "no", "TPP": "no", "PreQ1": "no"}
{"structure": "COCCNc1oc(-c2ccc(Cl)cc2)nc1S(=O)(=O)c1ccccc1", "TPP": "no", "PreQ1": "no"}

From ROBIN, a set of small-molecule microarray screens (doi:10.1002/anie.202211358).